# Values of other authors as cited in US20150182479A1, “Method of delivering agmatine for medical treatment” (TOPAZ VENTURES, INC., priority 2013, published 2015).
# “Also recorded” adds a separate entry of the source. Where two headings read alike, the source gives them in different places. For at least one compound, name, drawing or mass did not settle the structure.
# How the values were obtained:
# [1] = test system: thermal nociception; conditions: for hot-plate response latency, drug given alone: i.p., WIN 55212-2 or CP55,940 1, 2 or 3 mg/kg, agmatine 50 or 100 mg/kg
# [2] = test system: mice; conditions: tail-flick; for effect on oxycodone analgesia: agmatine 10 mg/kg i.p. 30 min before oxycodone s.c.
# [3] = test system: mouse
# [4] = test system: gastrointestinal transit; conditions: agmatine 10 mg/kg
# [5] = test system: mice subjected to SCI; conditions: for average number of surviving neurons (MAP-2), CAST: Th 8-Th 10 segments
# [6] = regression analysis, agmatine 50 mg/kg
smiles,measurement,setting,value
"NCCCCN=C(N)N [agmatine, 4-aminobutyl guanidine]","increase in response latency caused by CP55,940, effect of co-administered agmatine","[1]; agmatine 50 mg/kg i.p. with CP55,940 (1, 2 or 3 mg/kg; b80: 1 or 2 mg/kg)",response-latency enhancement
same,"increase in response latency caused by WIN 55212-2, effect of co-administered agmatine","[1]; agmatine 50 mg/kg i.p. with WIN 55212-2 1, 2 or 3 mg/kg i.p.",response-latency enhancement; also recorded: enhanced
same,"increase in response latency by highest dose of CP55,940, effect of agmatine","[1]; agmatine 50 mg/kg with CP55,940 3 mg/kg",also enhanced
same,"increase in response latency following anandamide, effect of agmatine",[1]; agmatine 50 mg/kg with anandamide 3 or 7.5 mg/kg i.p.,did not significantly enhance
same,"relative potency (R), CP55,940 alone and in combination with agmatine","[1]; agmatine 50 mg/kg, 95% confidence limits 3.192 to 5.596",4.39
same,"relative potency (R), ratio of ED50 of WIN 55212-2 alone and in combination with agmatine","[1]; agmatine 50 mg/kg, latency 30 min post-administration, 95% confidence limits 1.609 to 7.367",2.72
same,"hot-plate response latency, drug given alone",[1],not a significant drug interaction; also recorded: did not alter the response latency
same,"hot-plate response latency, drug given alone",[1]; listed as Agmatine,ineffective
same,"increase of potency of CP55,940 by agmatine",[1]; [6],4.4 fold
same,increase of potency of WIN 55212-2 by agmatine,[1]; [6],3 fold
same,effect on morphine analgesia,[2]; agmatine 10 mg/kg i.p. 30 min before morphine s.c.,significantly potentiated
same,effect on oxycodone analgesia,[2],potentiates
same,effect on oxycodone analgesia,[2]; listed as Agmatine,significantly potentiated
same,K3-opioid receptor-mediated (naloxone benzoylhydrazone) analgesia,"[3]; acute model, any dose of agmatine tested",not significantly enhanced
same,tolerance following chronic morphine dosing,"[3]; agmatine 0.1 mg/kg, morphine for 10 days",prevents tolerance
same,shift of morphine's ED50 (enhancement of morphine analgesia),[3]; dose-dependent,over 5 fold
same,"tolerance to [D-Pen2,D-Pen5]enkephalin",[3]; enkephalin given intrathecally,blocks tolerance
same,"shift of morphine analgesia, morphine given intracerebroventricularly",[3]; intracerebroventricular morphine,2 fold
same,"shift of morphine analgesia, morphine given intrathecally",[3]; intrathecal morphine,9 fold
same,K1-opioid receptor-mediated tolerance,"[3]; mouse, in vivo",prevents
same,tolerance to K3-opioid receptor agonist naloxone benzoylhydrazone,"[3]; mouse, in vivo",but not
same,effect on morphine's inhibition of gastrointestinal transit,[4],no effect
same,NG2+/BMP-4+ cell population,[5]; 7 DPI,decreased
same,NG2+/BMP-2+ cells vs EC group,[5]; 7 and 35 DPI,higher
same,NG2+/Olig-2+ cells vs EC group,[5]; 7 and 35 DPI,outnumbered
same,NG2+/GFAP+ cells vs EC group,"[5]; 7 and 35 DPI, listed as Agm",less and reduced
same,NG2+/BMP-4+ cells,"[5]; 35 DPI, listed as Agm",almostdisappeared; also recorded: almost disappeared
same,"average number of surviving neurons (MAP-2), CAST",[5]; 35 DPI,4.623.273 6106 cells/mm3
same,"average number of surviving neurons (MAP-2), CAST",[5]; 1 day,3.269.065 6106 cells/mm3
same,"average number of surviving neurons (MAP-2), CAST",[5]; 7 days,3.746.056 6106 cells/mm3
same,"average number of surviving neurons (MAP-2), CAST",[5]; 14 days,4.252.109 6106 cells/mm3
same,"surviving neurons (MAP-2) in total spinal cord and Th 8, Th 9, Th 10 segments (CAST) vs EC group","[5]; all time intervals, significant at 14 and 35 DPI (total, rostral, caudal), listed as Agm",increase
same,total number of BMP-4+/GFAP+ cells (CAST) vs EC group,"[5]; all time periods, significant at 7 & 14 DPI",decreased
same,total number of BMP-4+/Olig-2+ cells (CAST) vs EC group,"[5]; all time periods, significant at 14 & 35 DPI",decreased
